# Experimental data from US6849596B1, “Regulatory/unfolding peptides of ezrin” (priority 1999, dated 2005).
# Values joined by “and” are separate entries in the source; they are usually repeats but may differ in a detail not shown here. Equal entries are not always repeated. “Also recorded” adds a separate entry of the source. Part of at least one peptide drawing is inferred or uncertain, most often the ends. Where no end group is shown, it is not given here.
# How the values were obtained:
# [1] = system: activated macrophages; assay: Induction of activated macrophages in mice (peritoneal exsudate); format: in vivo; conditions: 1.0 microgram peptide/mouse injected abdominally; after 24 hours; saline 1.9
# Protocol: Groups of three mice (CDAxC57B1)F1 weighing 22-24 g were injected abdominally with each peptide solution of 1.0 microgram of peptide dissolved in 0.5 ml of physiological saline. After 24 hours the animals were killed using neck vertebrae dislocation and 5 ml of Hanks solution was injected into the abdomen. The abdomen was massaged for 30 seconds and then the peritoneal liquid was collected. The collected liquid was filtered using a nylon filter into siliconised tubes containing 1.5 mg/ml EDTA. The number of nucleus containing cells in […] of filtrate were then assessed under microscopic examination using a Nihon hemocytometer. The cells were pelleted by centrifugation for 5 minutes at 800 g, the pellet was resuspended in fetal calf serum, the cell suspension was dropped on to a glass microscope slide and dried then fixed in methanol and stained with Romanovski's colouring agent. Morphological analysis of the cells of the peritoneal exsudate were performed using an Opton optical microscope at 1600 magnifications. The number of lymphocytes, resting macrophages, activated macrophages, granulocytes and other cell types were assessed.
# [2] = format: in vivo, human; conditions: of 21 patients; 10 mg per day orally
# [3] = system: HIV; assay: HEP1 trial: HIV infectivity assay by TCID (HIVp24); format: in vivo
# [4] = system: peripheral blood mononuclear cells; assay: HEP1 trial: cell populations and cell surface markers by cytometry; format: in vivo, human; conditions: for CD38-CD8 cells as a % CD8cells: individual patients, 10 mg HEP1 orally one month
# [5] = system: CD4 T lymphocytes; assay: HEP1 trial: CD4 T lymphocytes; format: in vivo, human
# [6] = system: HLA Class I on human White Blood Cells; assay: Expression of MHC (HLA) Class I on human White Blood Cells; format: cell-based; conditions: 0.003 micrograms per ml
# Description: A cell specific effect of this activation was an increase in the population of monocytes expressing MHC Class I and a decrease in the population of CD8 lymphocytes expressing MHC Class I.
# [7] = system: Candida; assay: Clinical study of vaginal Candida infection in women, HEP1 intra-vaginally; format: in vivo, human
# [8] = system: IgG serum antibody response to Ovalbumin; assay: Adjuvant activity: IgG serum antibody response to Ovalbumin in mice; format: in vivo; conditions: for IgG response recorded as OD: 50 micrograms Ovalbumin, two weeks, sera 1 to 100; for IgG response recorded as OD then rebased relative to 100 for each control: control = 100
# Protocol: Adjuvant Activity of Hepreceptor Peptides Enhancing the IgG Serum Antibody Response to Ovalbumin in Mice
# The IgG response in mice two weeks after an injection of 50 micrograms of Ovalbumin plus various concentrations of different hepreceptor peptides was determined. IgG response was measured by Optical Density (OD) of a 1 to 100 dilution of mouse sera in the presence of Ovalbumin.
# IgG response recorded as OD
# IgG response recorded as OD then data rebased relative to 100 for each control
# [9] = system: opportunistic infections of the pharynx (Candida Ablicans, S viridans, S aureus); assay: HEP1 trial: opportunistic infections by microbiological analysis; format: in vivo, human
# [10] = system: human Peripheral Blood Mononuclear Cells; assay: In vitro activation of human PBMC, tritiated thymidine incorporation; format: cell-based; conditions: three days, Control 370
# Protocol: Peripheral Blood Mononuclear Cells (PBMC) were separated from the peripheral blood of a […] donor using the standard method of fractionation in a ficoll gradient. The PBMC were suspended in culture medium containing RPMI1640 medium plus 10% fetal calf serum, 1 mM L-glutamin and antibiotics (BM). The cell suspension was placed in wells of a 96 hole microwell plate for cell cultivation, (100 microliters of suspension containing 100,000 cells per well). […] The negative control well contained BM but no peptide. The plate was incubated at 37° C. for three days then radioactive ^3H thymidine was added to a final concentration of 1 microcurie per ml. The incorporation of ^3H thymidine into the DNA of the cells was measured using a betacounter using standard procedures. The experiment was repeated twice and the results expressed as an average of the two experiments in radioactive counts per minute.
# [11] = one month treatment, individual patients P12-P76
# [12] = three month treatment, individual patients P1-P11
# [13] = 10 patient group, one month HEP1
# [14] = 10 patient group, during treatment
# [15] = 10 patient group, during treatment, from low levels
# [16] = 10 patient group, five months following treatment
# [17] = individual patients, 5 ml of 2 mg/ml, three days, After (three weeks)
# [18] = IP injection 0.01 micrograms per mouse
# [19] = IP injection 0.1 micrograms per mouse
# [20] = IP injection 1 microgram per mouse
# [21] = IP injection 10 micrograms per mouse
sequence,measurement,setting,value
"TEKKRRETVEREKE [HEP1, TEKKRRETVEREKE]",Activated macrophages as a percent of total number of cells,[1],2.2%
same,patients who reported they felt generally better,[2],17 patients
same,"HIV infectivity (p24max) Phase 0 average, re-based to 100 at start",[3]; [11],288 and 251
same,"HIV infectivity (p24max) Phase 1 average, re-based to 100 at start",[3]; [11],24 and 73 and 0 (2×) and 5 and 29
same,"HIV infectivity (p24max) Phase 2 average, re-based to 100 at start",[3]; [11],1815 and 141 and 209 and 6924 and 659 and 334 and 993 and 28919 and 115 and 236
same,"HIV infectivity (p24max) Phase 3 average, re-based to 100 at start",[3]; [11],5 and 102 and 39 and 54 and 51 (2×) and 15 and 57
same,patients in whom infectious HIV load dropped to zero for at least one week,"[3]; out of 21, first three weeks of treatment",9 patients
same,"HIV infectivity (p24max) Phase 0 average, re-based to 100 at start",[3]; [12],130
same,"HIV infectivity (p24max) Phase 1 average, re-based to 100 at start",[3]; [12],7 and 32 and 0 (3×) and 28 and 47 and 39
same,"HIV infectivity (p24max) Phase 2 average, re-based to 100 at start",[3]; [12],21 and 835 and 218 and 198 and 129 and 251 and 70 and 217 and 40
same,"HIV infectivity (p24max) Phase 3 average, re-based to 100 at start",[3]; [12],0 (3×) and 61 and 85 and 48 and 24
same,CD25-CD4 cells,[4]; [13],did not show significant variation
same,"Other markers such as CD28, HLA-DR, CD45RO, CD45RA, CD57, CD62L",[4]; [13],no significant changes or consistent patterns between patients
same,"Lymphocytes, average increase in absolute number","[4]; 10 patient group, one month HEP1, during treatment",7%
same,"B cells, average increase",[4]; [14],5%
same,"CD3 expressing cells, average increase",[4]; [14],15%
same,"CD8 expressing cells, average increase",[4]; [14],15%
same,"CD44-CD4 expressing cells, average increase",[4]; [14],25%
same,"CD44CD8 expressing cells, average increase",[4]; [14],12%
same,"HLA ClassI expression level on CD4 cells, average increase",[4]; [14],10%
same,"HLA ClassI expression level on CD8 cells, average increase",[4]; [14],10%
same,"Leucocytes, average increase",[4]; [14],10%
same,"Natural Killer Cells, average increase",[4]; [14],10%
same,"CD25-CD8 expressing cells, average increase",[4]; [15],5%
same,"CD38-CD4 expressing cells, average increase",[4]; [15],2%
same,"CD38-CD8 expressing cells, average increase",[4]; [15],2%
same,"B cells, increase",[4]; [16],approximately 80%
same,"CD3 expressing cells, increase",[4]; [16],approximately 30%
same,"CD8 expressing cells, increase",[4]; [16],approximately 20%
same,"CD25-CD8 expressing cells, increase",[4]; [16],approximately 100%
same,"CD38-CD4 expressing cells, decrease",[4]; [16],approximately 15%
same,"CD38-CD8 expressing cells, decrease",[4]; [16],approximately 25%
same,"CD44-CD4 expressing cells, increase",[4]; [16],approximately 60%
same,"CD44CD8 expressing cells, increase",[4]; [16],approximately 30%
same,"HLA ClassI expression level on CD4 cells, increase",[4]; [16],approximately 70%
same,"HLA ClassI expression level on CD8 cells, increase",[4]; [16],approximately 70%
same,"Leucocytes, increase",[4]; [16],approximately 20%
same,"Lymphocytes, increase",[4]; [16],25%
same,"Natural Killer Cells, increase",[4]; [16],approximately 30%
same,CD38-CD8 cells as a % CD8cells,[4]; Month 1 treatment,94% (2×) and 71% and 86% and 84%
same,CD38-CD8 cells as a % CD8cells,[4]; Month 3,79% and 69% and 86% and 77%
same,CD38-CD8 cells as a % CD8cells,[4]; Month 4,84% and 50% and 79% and 64%
same,CD38-CD8 cells as a % CD8cells,[4]; Month 5,73% and 55% and 66% and 71% and 54%
same,CD38-CD8 cells as a % CD8cells,[4]; Month 6,72% and 57% and 50%
same,average gain of T cell numbers (CD4 T lymphocytes),"[5]; eleven patients treated three months, by the end of treatment",9%
same,average gain of T cell numbers (CD4 T lymphocytes),"[5]; eleven patients treated three months, over the following six months after treatment",32%
same,average gain of T cell numbers (CD4 T lymphocytes),"[5]; ten patients treated one month, by the end of treatment",3%
same,average gain of T cell numbers (CD4 T lymphocytes),"[5]; ten patients treated one month, over the following six months after treatment",20%
same,"Density of cell surface expression of HLA Class I, rebased to 100 for control","[6]; B and NK cells, 24 hours",84
same,"Percentage of cell population expressing HLA Class I, rebased to 100 for control","[6]; B and NK cells, 24 hours",102
same,"Density of cell surface expression of HLA Class I, rebased to 100 for control","[6]; CD4 lymphocytes, 24 hours",80
same,"Percentage of cell population expressing HLA Class I, rebased to 100 for control","[6]; CD4 lymphocytes, 24 hours",105
same,"Density of cell surface expression of HLA Class I, rebased to 100 for control","[6]; CD8 lymphocytes, 24 hours",83
same,"Percentage of cell population expressing HLA Class I, rebased to 100 for control","[6]; CD8 lymphocytes, 24 hours",91
same,"Density of cell surface expression of HLA Class I, rebased to 100 for control","[6]; Granulocytes, 24 hours",89
same,"Percentage of cell population expressing HLA Class I, rebased to 100 for control","[6]; Granulocytes, 24 hours",100
same,"Density of cell surface expression of HLA Class I, rebased to 100 for control","[6]; Monocytes/Macrophages, 24 hours at 37° C.",83
same,Cervical swab (Candida cultivation),[7]; [17],Absent (2×) and few
same,Urethra swab (Candida cultivation),[7]; [17],Absent; also recorded: Low growth
same,Vaginal swab (Candida cultivation),[7]; [17],Absent
same,clinical symptoms of Candida infection,"[7]; one female, recurrent moderate infection, 5 ml of 1 mg/ml intra-vaginally, two consecutive days, after three days",all clinical symptoms of Candida infection had disappeared
same,recurrences of Candida infection,"[7]; same patient, 12 month follow-up",no further recurrences of Candida infection
same,Clinical analysis,"[7]; severe persistent infection, individual patients, 5 ml of 2 mg/ml, three consecutive days, After (three weeks)",No symptoms; also recorded: mild symptoms
same,outcome of severe candida infection of the vagina,"[7]; three female patients, before versus three weeks after treatment",either significant improvement or elimination of the infection
same,IgG response recorded as OD,[8]; [18],0.45 OD
same,IgG response recorded as OD then rebased relative to 100 for each control,[8]; [18],65
same,IgG response recorded as OD,[8]; [19],0.44 OD
same,IgG response recorded as OD then rebased relative to 100 for each control,[8]; [19],64
same,IgG response recorded as OD,[8]; [20],0.56 OD
same,IgG response recorded as OD then rebased relative to 100 for each control,[8]; [20],81
same,IgG response recorded as OD,[8]; [21],0.57 OD
same,IgG response recorded as OD then rebased relative to 100 for each control,[8]; [21],83
same,patients with S aureus infection of the pharynx after treatment,[9]; before treatment 33%,19%
same,patients with severe Candida Ablicans infection of the pharynx after treatment,[9]; before treatment 38%,9%
same,patients with severe S viridans infection of the pharynx after treatment,[9]; before treatment 52%,33%
same,incorporation of 3H thymidine,[10]; Peptide 0.0001 micro g/ml,410 radioactive counts per minute
same,incorporation of 3H thymidine,[10]; Peptide 0.0003 micro g/ml,500 radioactive counts per minute
same,incorporation of 3H thymidine,[10]; Peptide 0.001 micro g/ml,989 radioactive counts per minute
same,incorporation of 3H thymidine,[10]; Peptide 0.003 micro g/ml,700 radioactive counts per minute
same,incorporation of 3H thymidine,[10]; Peptide 0.01 micro g/ml,628 radioactive counts per minute
same,incorporation of 3H thymidine,[10]; Peptide 0.03 micro g/ml,517 radioactive counts per minute
same,incorporation of 3H thymidine,[10]; Peptide 0.1 micro g/ml,456 radioactive counts per minute
same,incorporation of 3H thymidine,[10]; Peptide 0.3 micro g/ml,399 radioactive counts per minute
same,incorporation of 3H thymidine,[10]; Peptide 1 micro g/ml,400 radioactive counts per minute
same,incorporation of 3H thymidine,[10]; Peptide 3 micro g/ml,412 radioactive counts per minute
same,incorporation of 3H thymidine,[10]; Peptide 10 micro g/ml,501 radioactive counts per minute
